Assay results: paper PMC11530130, “Peripherally restricted PICK1 inhibitor mPD5 ameliorates pain behaviors in murine inflammatory and neuropathic pain models” (JCI Insight, 2024)
Values joined by “and” are separate entries in the source; they are usually repeats but may differ in a detail not shown here. Equal values may be shown once. Further values from the same series stand in other lists.

Legend:
naive mice = experiment: Open field locomotion; type: in vivo, mouse; settings: individual animals, listed as myr
Description: Concentration 10 µmol/kg: Wild type mice were habituated to the experimental room for a minimum of 60 min before initiation of the experiment. Female and male mice were run on separate days. Mice were injected s.c. with 10 μmol/kg mPD5 or sterile PBS directly before being placed in open field boxes (40 cm x 40 cm x 80 cm) for 2.5 hours with up to four mice in boxes at any one time. A video camera placed above the open field recorded the animals’ behaviour and Ethovision XT 13 (Noldus) was used to track the distance travelled by the […]
Concentration 30 + 50 µmol/kg: Animals were habituated to the experimental room for a minimum of 60 min before initiation of the experiment. At initiation of experiment, the mice (all male) were injected subcutaneously (s.c.) with mPD5 (30 or 50 μmol/kg, pH adjusted to approximately 7 with 5 M NaOH) or 0.9 % saline (B.Braun, Germany) and left in their home cage for 60 min. After exactly one hour, the mice were placed in an open field (40 cm x 40 cm x 80 cm) for 60 min. A video camera placed above the open field recorded the animals’ […]
animal. The experiment was run in cohort with Figure 2B+C of (9)). […]

[1] = test system: mice, spared nerve injury (SNI) model; experiment: SNI model 18 weeks after surgery, von Frey, sustained s.c. administration; type: in vivo, mouse; set-up: von Frey threshold, Fig 7C, individual mice: unit not given here
Description: Repeated and sustained administration of mPD5 in the SNI model. […]
For the first experiment with sustained administration of mPD5 (Figure 7C), the mice underwent a baseline von Frey reading as described in the “Mechanically-evoked pain (von Frey).”-section and SNI surgery as described in “Induction of neuropathic pain (SNI model).”-section. Approximately 18 weeks (125 days) after SNI surgery, hyperalgesia was confirmed with von Frey. On the same day, mice were injected s.c. with 10 μmol/kg mPD5 and evoked pain was tested again at 1 hour after injection. Then, mice were injected s.c. with either 2+2+2 μmol/kg mPD5 (group A) or PBS (group B) once an hour for 3 hours. At 4,5 hours after the 10 μmol/kg mPD5 injection paw withdrawal threshold was measured again followed by a s.c. injection of 2 μmol/kg mPD5 in all animals. The PWT was measured again at 6 hours +7 hours + 8 hours + 9 hours + 10 hours + 11 hours + 22 hours + 23 hours + 25 hours + 27 hours + 49 hours + 121 hours after the initial 10 μmol/kg mPD5 injection performed on day 125. […]

CCCCCCCCCCCCCC(=O)N(CCOCCOCCC(=O)N[C@@H](Cc1c[nH]cn1)C(=O)N[C@@H](Cc1c[nH]c2ccccc12)C(=O)N[C@@H](CC(C)C)C(=O)N[C@@H](CCCCN)C(=O)N[C@H](C(=O)O)C(C)C)CCOCCOCCC(=O)N[C@@H](Cc1c[nH]cn1)C(=O)N[C@@H](Cc1c[nH]c2ccccc12)C(=O)N[C@@H](CC(C)C)C(=O)N[C@@H](CCCCN)C(=O)N[C@H](C(=O)O)C(C)C [mPD5, myristoyl-NPEG4-(HWLKV)2]
open field locomotion per 5min bin (Fig S8A) (naive mice; myr 30 sc, time bin 10): 24.6381 and 12.5649 | open field locomotion per 5min bin (Fig S8A) (naive mice; myr 30 sc, time bin 15): 6.319 and 13.9565 and 0.7545 and 19.9932 and 23.1332 and 8.855 | open field locomotion per 5min bin (Fig S8A) (naive mice; myr 30 sc, time bin 20): 2.436 and 11.2802 and 0.2573 and 13.8011 and 21.7437 and 5.87 | open field locomotion per 5min bin (Fig S8A) (naive mice; myr 30 sc, time bin 25): 0.7647 and 5.632 and 4.615 and 19.5906 and 21.1128 and 10.559 | open field locomotion per 5min bin (Fig S8A) (naive mice; myr 30 sc, time bin 30): 0.758 and 10.4492 and 0.5588 and 17.1349 and 21.8311 and 6.638 | open field locomotion per 5min bin (Fig S8A) (naive mice; myr 50 sc, time bin 10): 11.621 and 9.116 | open field locomotion per 5min bin (Fig S8A) (naive mice; myr 50 sc, time bin 15): 9.351 and 8.889 and 2.673 and 11.9894 and 6.662 and 12.2507 and 11.1024 | open field locomotion per 5min bin (Fig S8A) (naive mice; myr 50 sc, time bin 20): 7.309 and 7.613 and 0.7207 and 9.662 and 8.576 and 11.1677 and 7.267 | open field locomotion per 5min bin (Fig S8A) (naive mice; myr 50 sc, time bin 25): 1.61 and 6.95 and 1.94 and 7.566 and 10.4592 and 12.1498 and 10.0093 | open field locomotion per 5min bin (Fig S8A) (naive mice; myr 50 sc, time bin 30): 9.273 and 7.539 and 1.11 and 7.985 and 2.094 and 7.883 and 4.781 | von Frey threshold, contralateral paw, Fig 7C, individual mice ([1]; A-contra, time 1 post inj 1): 1.4 (3×) and 1 (5×) | von Frey threshold, contralateral paw, Fig 7C, individual mice ([1]; A-contra, time 4,5 post inj 1): 1.4 (5×) and 1 (3×) | von Frey threshold, contralateral paw, Fig 7C, individual mice ([1]; A-contra, time 6 post første inj og time 1 post sidste inj): 1.4 (5×) and 1 (3×) | von Frey threshold, contralateral paw, Fig 7C, individual mice ([1]; A-contra, time 7 post første inj og time 2 post sidste inj): 2 (2×) and 1.4 (3×) and 1 (3×) | von Frey threshold, contralateral paw, Fig 7C, individual mice ([1]; A-contra, time 8 post første inj og time 3 post sidste inj): 1.4 (4×) and 1 (4×) | von Frey threshold, contralateral paw, Fig 7C, individual mice ([1]; A-contra, time 49 post første inj og time 44 post sidste inj): 1.4 (6×) and 1 (2×) | von Frey threshold, contralateral paw, Fig 7C, individual mice ([1]; A-contra, time 121 post første inj og time 116 post sidste inj): 1.4 (4×) and 1 (3×) and 2 | von Frey threshold, contralateral paw, Fig 7C, individual mice ([1]; B-contra, time 1 post inj 1): 1.4 (6×) and 0.6 and 2 | von Frey threshold, contralateral paw, Fig 7C, individual mice ([1]; B-contra, time 4,5 post inj 1): 1.4 (4×) and 1 (2×) and 2 (2×) | von Frey threshold, contralateral paw, Fig 7C, individual mice ([1]; B-contra, time 6 post første inj og time 1 post sidste inj): 1.4 (4×) and 2 (4×) | von Frey threshold, contralateral paw, Fig 7C, individual mice ([1]; B-contra, time 7 post første inj og time 2 post sidste inj): 1 (2×) and 1.4 (3×) and 2 (3×) | von Frey threshold, contralateral paw, Fig 7C, individual mice ([1]; B-contra, time 8 post første inj og time 3 post sidste inj): 1.4 (5×) and 2 (2×) and 1 | von Frey threshold, contralateral paw, Fig 7C, individual mice ([1]; B-contra, time 27 post første inj og time 22 post sidste inj): 1 (2×) and 1.4 (4×) and 2 (2×) | von Frey threshold, contralateral paw, Fig 7C, individual mice ([1]; B-contra, time 49 post første inj og time 44 post sidste inj): 1.4 (4×) and 2 (2×) and 1 (2×) | von Frey threshold, contralateral paw, Fig 7C, individual mice ([1]; B-contra, time 121 post første inj og time 116 post sidste inj): 1.4 (3×) and 2 (3×) and 1 (2×) | von Frey threshold, Fig 7C, individual mice ([1]; group A, time 1 post inj 1): 1 and 1.4 and 0.4 and 0.6 (4×) and 2 | von Frey threshold, Fig 7C, individual mice ([1]; group A, time 4,5 post inj 1): 0.6 (3×) and 1.4 and 0.4 and 1 (2×) and 2 | von Frey threshold, Fig 7C, individual mice ([1]; group A, time 6 post første inj og time 1 post sidste inj): 2 and 1.4 and 1 (6×) | von Frey threshold, Fig 7C, individual mice ([1]; group A, time 7 post første inj og time 2 post sidste inj): 1.4 (4×) and 1 (2×) and 0.6 (2×) | von Frey threshold, Fig 7C, individual mice ([1]; group A, time 8 post første inj og time 3 post sidste inj): 1 (4×) and 1.4 (2×) and 0.6 (2×) | von Frey threshold, Fig 7C, individual mice ([1]; group A, time 27 post første inj og time 22 post sidste inj): 1.4 and 0.16 (2×) and 1 | von Frey threshold, Fig 7C, individual mice ([1]; group A, time 49 post første inj og time 44 post sidste inj): 0.4 (4×) and 1.4 and 0.07 and 0.16 and 1 | von Frey threshold, Fig 7C, individual mice ([1]; group A, time 121 post første inj og time 116 post sidste inj): 0.16 (2×) and 0.4 (4×) and 0.07 (2×) | von Frey threshold, Fig 7C, individual mice ([1]; group B, time 1 post inj 1): 2 and 1.4 (2×) and 0.6 and 0.16 and 1 (2×) and 0.4 | von Frey threshold, Fig 7C, individual mice ([1]; group B, time 4,5 post inj 1): 1.4 (2×) and 0.6 and 0.16 (3×) and 0.4 and 0.07 | von Frey threshold, Fig 7C, individual mice ([1]; group B, time 6 post første inj og time 1 post sidste inj): 1.4 (2×) and 0.16 (4×) and 1 and 0.4 | von Frey threshold, Fig 7C, individual mice ([1]; group B, time 7 post første inj og time 2 post sidste inj): 1.4 (2×) and 0.6 and 0.07 (4×) and 1 | von Frey threshold, Fig 7C, individual mice ([1]; group B, time 8 post første inj og time 3 post sidste inj): 2 and 0.4 (2×) and 0.07 (4×) and 0.16 | von Frey threshold, Fig 7C, individual mice ([1]; group B, time 49 post første inj og time 44 post sidste inj): 0.16 (6×) and 0.07 and 0.04 | von Frey threshold, Fig 7C, individual mice ([1]; group B, time 121 post første inj og time 116 post sidste inj): 0.4 and 0.16 (5×) and 0.07 (2×)
